The values below come from PMC6720408.

The chains behind the UniProt entries cited, without tags or fusion partners. Residues count along the entry.
UniProt P67809, residues 130-205: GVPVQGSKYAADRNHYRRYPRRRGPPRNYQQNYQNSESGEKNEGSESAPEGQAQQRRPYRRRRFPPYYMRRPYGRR
UniProt Q13283: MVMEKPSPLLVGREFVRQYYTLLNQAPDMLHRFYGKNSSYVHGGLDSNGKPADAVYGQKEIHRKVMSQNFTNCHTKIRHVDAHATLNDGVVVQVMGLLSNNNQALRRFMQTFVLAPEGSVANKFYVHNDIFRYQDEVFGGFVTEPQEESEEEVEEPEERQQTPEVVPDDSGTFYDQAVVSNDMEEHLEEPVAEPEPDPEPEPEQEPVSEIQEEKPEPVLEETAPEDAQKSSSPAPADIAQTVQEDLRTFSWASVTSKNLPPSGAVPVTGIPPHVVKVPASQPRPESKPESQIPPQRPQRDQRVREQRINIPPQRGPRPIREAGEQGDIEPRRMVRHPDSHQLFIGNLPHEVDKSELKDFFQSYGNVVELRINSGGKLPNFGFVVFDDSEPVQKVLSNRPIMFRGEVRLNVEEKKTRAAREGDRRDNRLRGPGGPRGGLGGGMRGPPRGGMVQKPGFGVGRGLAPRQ

No constants are given. Whether binding was seen depends on the method and setting. In cells and extracts the contact can be indirect. Some results given as binding are weak or reduced against the parent protein; the word gives no strength.

The target in this test is GFP-YBX1 (aa 130–205) (UniProt P67809). Nature of the test: co-IP; ACHN cells transfected with GFP-YBX1 or GFP-tagged YBX1 domains; lysates precipitated with GFP-Trap_MA beads; western blot with anti-G3BP1 (endogenous G3BP1).

Turning to “Ras-GTPase activating protein SH3 domain binding proteins 1 (G3BP1), endogenous (from UniProt Q13283 1-466)”, the binding result is “binds”.
